# Test results published in publication PMC9988257.
# Chains of the proteins cited; added tags and fusions are not shown.
# UniProt O35250: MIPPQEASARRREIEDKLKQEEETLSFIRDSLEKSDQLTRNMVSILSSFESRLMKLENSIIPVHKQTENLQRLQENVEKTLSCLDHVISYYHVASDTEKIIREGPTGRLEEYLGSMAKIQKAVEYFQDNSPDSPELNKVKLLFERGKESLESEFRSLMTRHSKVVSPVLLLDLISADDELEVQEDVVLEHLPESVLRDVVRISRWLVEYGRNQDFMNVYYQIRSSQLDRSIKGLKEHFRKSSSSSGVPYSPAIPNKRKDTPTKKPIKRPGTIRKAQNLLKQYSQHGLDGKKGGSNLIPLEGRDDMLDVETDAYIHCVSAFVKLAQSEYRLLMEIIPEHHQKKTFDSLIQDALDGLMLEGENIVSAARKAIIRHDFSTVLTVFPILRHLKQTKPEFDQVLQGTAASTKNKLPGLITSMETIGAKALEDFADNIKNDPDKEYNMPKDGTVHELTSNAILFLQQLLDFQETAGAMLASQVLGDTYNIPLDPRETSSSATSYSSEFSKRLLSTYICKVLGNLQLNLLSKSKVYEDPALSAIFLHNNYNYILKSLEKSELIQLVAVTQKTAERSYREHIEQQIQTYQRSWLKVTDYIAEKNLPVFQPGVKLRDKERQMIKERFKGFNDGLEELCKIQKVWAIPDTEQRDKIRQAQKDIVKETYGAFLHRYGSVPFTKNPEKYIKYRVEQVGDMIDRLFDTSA
# UniProt O35382: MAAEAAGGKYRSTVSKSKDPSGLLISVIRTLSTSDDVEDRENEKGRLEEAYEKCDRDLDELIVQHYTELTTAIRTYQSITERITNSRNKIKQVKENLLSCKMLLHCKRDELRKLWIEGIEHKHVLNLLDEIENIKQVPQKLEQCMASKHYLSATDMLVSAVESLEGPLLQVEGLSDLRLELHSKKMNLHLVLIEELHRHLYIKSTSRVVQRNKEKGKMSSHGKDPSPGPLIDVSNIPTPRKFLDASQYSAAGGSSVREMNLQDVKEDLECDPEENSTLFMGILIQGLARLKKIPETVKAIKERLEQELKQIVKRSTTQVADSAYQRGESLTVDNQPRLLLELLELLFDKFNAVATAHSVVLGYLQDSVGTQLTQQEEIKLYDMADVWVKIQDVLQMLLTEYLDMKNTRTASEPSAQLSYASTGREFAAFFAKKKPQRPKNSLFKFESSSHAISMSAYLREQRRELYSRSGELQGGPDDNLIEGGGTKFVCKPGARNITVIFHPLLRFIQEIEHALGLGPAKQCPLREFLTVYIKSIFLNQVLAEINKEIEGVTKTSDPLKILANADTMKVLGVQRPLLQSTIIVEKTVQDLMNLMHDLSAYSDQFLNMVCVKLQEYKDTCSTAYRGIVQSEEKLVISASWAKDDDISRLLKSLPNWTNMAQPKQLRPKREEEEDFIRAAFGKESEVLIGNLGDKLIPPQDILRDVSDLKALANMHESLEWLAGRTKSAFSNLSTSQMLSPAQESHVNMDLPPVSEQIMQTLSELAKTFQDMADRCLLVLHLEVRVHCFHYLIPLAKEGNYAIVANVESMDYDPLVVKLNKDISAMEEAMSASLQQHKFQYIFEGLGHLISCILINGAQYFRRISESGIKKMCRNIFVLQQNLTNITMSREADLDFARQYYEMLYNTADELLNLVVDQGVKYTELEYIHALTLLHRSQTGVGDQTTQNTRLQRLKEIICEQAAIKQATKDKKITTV
# UniProt Q3TPX4: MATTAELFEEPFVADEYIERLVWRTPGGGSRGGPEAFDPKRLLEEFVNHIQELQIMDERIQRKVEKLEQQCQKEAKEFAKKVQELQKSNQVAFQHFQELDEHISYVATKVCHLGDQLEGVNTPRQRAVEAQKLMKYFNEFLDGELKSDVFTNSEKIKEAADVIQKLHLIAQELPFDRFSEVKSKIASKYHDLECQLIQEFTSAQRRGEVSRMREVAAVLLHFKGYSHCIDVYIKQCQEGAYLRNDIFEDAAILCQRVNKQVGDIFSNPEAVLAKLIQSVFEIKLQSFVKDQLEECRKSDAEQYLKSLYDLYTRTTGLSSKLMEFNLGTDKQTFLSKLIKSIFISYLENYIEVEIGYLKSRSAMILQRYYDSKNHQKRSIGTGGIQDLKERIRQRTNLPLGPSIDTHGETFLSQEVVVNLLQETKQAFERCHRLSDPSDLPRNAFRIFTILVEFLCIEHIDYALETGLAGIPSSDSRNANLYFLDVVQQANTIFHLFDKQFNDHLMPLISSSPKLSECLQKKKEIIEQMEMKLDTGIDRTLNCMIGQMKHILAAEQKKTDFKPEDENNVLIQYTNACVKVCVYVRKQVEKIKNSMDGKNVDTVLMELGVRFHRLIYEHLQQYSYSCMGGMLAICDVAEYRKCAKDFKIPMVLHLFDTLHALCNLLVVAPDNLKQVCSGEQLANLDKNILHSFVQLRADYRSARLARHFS
# Results are given in words; binding and its absence hold for the method and conditions named. In cells and extracts the contact can be indirect. These calls come from enrichment with a bait or labelling near it, and not all partners need be listed. Where a sequence is shown, tags or fusion partners need not be part of it.
# How the values were obtained:
# [1] = target: T1, MEF-tagged exophilin-8, WT (expressed in MIN6 cells) (mouse) (UniProt Q8K3I4); experiment: affinity purification with mass spectrometry; MIN6 cells infected with adenovirus; anti-FLAG immunoprecipitates, gel stained with Oriole, specific bands cut, trypsin digest, LC-MS/MS
# T1 sequence: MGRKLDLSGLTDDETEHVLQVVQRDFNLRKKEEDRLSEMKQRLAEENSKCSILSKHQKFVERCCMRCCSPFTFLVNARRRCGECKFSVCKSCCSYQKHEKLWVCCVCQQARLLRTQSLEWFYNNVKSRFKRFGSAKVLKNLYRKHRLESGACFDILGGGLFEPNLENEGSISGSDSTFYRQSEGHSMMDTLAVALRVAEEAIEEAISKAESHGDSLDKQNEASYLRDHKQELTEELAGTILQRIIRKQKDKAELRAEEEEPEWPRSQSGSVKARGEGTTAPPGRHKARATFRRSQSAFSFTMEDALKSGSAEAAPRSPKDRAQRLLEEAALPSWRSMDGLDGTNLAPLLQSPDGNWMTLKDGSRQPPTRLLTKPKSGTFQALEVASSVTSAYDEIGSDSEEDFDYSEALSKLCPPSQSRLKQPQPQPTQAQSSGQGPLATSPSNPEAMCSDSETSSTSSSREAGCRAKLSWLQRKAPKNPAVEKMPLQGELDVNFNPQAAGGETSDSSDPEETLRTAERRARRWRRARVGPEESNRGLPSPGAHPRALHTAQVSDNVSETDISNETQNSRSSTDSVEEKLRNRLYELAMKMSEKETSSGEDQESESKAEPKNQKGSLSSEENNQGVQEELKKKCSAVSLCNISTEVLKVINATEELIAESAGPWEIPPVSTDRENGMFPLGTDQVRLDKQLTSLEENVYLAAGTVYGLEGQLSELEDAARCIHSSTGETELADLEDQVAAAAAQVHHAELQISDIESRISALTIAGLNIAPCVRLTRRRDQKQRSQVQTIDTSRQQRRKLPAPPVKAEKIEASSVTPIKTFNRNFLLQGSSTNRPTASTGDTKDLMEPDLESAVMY
# [2] = target: T2, MEF-tagged melanophilin (expressed in MIN6 cells) (mouse) (UniProt Q91V27); experiment: as above
# T2 sequence: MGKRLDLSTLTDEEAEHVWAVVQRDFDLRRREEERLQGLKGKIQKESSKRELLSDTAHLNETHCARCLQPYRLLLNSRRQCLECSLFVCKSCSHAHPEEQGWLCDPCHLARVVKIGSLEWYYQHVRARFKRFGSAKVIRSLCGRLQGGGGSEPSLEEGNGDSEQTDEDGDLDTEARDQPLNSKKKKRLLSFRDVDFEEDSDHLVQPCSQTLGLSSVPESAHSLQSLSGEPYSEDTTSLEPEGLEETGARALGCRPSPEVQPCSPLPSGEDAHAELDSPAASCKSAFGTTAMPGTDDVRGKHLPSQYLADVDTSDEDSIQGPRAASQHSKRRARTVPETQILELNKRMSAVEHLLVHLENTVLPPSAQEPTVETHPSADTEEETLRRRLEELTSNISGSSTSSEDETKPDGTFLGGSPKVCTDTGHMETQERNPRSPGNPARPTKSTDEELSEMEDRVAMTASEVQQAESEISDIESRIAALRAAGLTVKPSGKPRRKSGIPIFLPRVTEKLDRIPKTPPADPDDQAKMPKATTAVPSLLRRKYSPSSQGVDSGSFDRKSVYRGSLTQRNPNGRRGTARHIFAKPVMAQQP
binding [1],binding [2],Substance
binds,binds,"EXO70 (endogenous, MIN6 cells) (from UniProt O35250 1-697)"
binds,binds,"SEC8 (endogenous, MIN6 cells) (from UniProt O35382 1-975)"
binds,binds,"SEC10 (endogenous, MIN6 cells) (from UniProt Q3TPX4 1-708)"
